Test results published in publication PMC4738272 (Scientific Reports, 2016).

How the values were obtained:
[1] = tested on: HepG2/C3A; assay: MTT viability of liver module in 4-organ system; assay type: cell-based, human; conditions: 4-organ co-culture under flow, serum-free medium, 48 h drug treatment, day 7, vs control, DOX 5 μM, ATR 100 μM, VPA 2 mM, APAP 5 mM, AMAP 5 mM
[2] = tested on: HepG2/C3A; assay: Urea quantification, liver fraction of 4-organ system; assay type: cell-based, human; conditions: 4-organ co-culture under flow, 48 h drug treatment, vs control; DOX 5 μM, ATR 100 μM, APAP 5 mM, AMAP 5 mM
[3] = cited from earlier work

Compound: CC(C)c1c(C(=O)Nc2ccccc2)c(-c2ccccc2)c(-c2ccc(F)cc2)n1CC[C@@H](O)C[C@@H](O)CC(=O)O [Atorvastatin]
- Liver (hepatocyte) cell viability, loss [1]: 50 ± 16% loss
- Liver (hepatocyte) cell viability, loss ([1]; listed as ATR): 50 ± 16%
- Urea production, increase [2]: 24 ± 4%
- Range for human plasma levels [3]: 13 to 125 µM
